Test results taken from the supplement of paper PMC10849652.
This is one part of the list. Residues, ends and D or L forms follow the SMILES beside them. *: point of attachment. Cbz = O=C(OCc1ccccc1)*

Amino acid sequences for entries named in this document (tags omitted). A change or cut given only in a name is not applied to a line headed by its entry.
UniProt Q8NF64: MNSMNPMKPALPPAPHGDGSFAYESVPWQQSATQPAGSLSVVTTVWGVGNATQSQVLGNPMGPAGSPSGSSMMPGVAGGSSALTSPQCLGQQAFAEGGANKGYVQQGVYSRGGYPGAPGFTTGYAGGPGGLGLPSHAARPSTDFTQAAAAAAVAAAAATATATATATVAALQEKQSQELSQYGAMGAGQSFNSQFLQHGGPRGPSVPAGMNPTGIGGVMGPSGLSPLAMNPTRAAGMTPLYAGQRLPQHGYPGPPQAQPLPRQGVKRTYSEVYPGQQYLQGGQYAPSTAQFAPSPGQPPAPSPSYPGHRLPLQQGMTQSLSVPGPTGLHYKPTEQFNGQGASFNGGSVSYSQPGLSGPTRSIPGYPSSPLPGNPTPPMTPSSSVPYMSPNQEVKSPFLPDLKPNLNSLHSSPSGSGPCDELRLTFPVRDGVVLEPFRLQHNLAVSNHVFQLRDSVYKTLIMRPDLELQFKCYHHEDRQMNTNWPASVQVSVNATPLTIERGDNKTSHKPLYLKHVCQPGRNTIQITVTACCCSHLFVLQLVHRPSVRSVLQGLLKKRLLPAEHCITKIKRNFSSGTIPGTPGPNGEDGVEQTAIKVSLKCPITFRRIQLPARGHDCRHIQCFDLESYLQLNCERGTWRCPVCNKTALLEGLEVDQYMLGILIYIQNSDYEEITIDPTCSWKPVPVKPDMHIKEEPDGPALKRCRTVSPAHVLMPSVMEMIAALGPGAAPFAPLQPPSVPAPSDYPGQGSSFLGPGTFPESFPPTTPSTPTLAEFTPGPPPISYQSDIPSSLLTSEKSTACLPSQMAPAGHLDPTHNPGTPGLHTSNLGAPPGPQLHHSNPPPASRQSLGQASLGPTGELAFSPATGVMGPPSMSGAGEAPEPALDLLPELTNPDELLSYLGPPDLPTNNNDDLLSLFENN
UniProt Q9Y5A9: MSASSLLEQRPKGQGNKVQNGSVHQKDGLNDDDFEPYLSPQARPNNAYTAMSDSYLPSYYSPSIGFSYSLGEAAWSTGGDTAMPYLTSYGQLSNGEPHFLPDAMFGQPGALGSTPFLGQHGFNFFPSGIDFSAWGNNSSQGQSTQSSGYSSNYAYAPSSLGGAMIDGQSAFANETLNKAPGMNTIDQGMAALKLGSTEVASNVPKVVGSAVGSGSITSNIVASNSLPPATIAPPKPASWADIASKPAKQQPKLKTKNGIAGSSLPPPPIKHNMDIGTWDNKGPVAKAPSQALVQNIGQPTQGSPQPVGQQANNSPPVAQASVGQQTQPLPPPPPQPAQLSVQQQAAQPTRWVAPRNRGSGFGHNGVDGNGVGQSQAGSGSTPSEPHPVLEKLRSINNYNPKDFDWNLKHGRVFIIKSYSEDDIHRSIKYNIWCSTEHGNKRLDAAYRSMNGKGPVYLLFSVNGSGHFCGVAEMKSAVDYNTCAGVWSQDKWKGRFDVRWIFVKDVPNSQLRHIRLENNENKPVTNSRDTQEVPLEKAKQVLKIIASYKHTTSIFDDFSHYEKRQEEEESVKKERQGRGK
UniProt Q8IZN3: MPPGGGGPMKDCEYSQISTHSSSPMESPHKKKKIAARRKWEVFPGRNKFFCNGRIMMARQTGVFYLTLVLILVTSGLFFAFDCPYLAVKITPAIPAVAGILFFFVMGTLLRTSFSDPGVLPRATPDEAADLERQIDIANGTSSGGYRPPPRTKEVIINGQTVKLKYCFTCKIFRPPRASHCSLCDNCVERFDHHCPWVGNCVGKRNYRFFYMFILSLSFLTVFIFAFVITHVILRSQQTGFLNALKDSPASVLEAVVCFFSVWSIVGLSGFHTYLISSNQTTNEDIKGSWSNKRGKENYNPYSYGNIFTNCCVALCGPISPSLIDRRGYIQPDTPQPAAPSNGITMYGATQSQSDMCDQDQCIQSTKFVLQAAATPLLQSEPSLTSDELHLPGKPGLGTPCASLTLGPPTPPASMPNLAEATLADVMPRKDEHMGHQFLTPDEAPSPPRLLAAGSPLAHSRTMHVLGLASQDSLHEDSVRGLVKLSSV
UniProt P07947, whole entry, looked up: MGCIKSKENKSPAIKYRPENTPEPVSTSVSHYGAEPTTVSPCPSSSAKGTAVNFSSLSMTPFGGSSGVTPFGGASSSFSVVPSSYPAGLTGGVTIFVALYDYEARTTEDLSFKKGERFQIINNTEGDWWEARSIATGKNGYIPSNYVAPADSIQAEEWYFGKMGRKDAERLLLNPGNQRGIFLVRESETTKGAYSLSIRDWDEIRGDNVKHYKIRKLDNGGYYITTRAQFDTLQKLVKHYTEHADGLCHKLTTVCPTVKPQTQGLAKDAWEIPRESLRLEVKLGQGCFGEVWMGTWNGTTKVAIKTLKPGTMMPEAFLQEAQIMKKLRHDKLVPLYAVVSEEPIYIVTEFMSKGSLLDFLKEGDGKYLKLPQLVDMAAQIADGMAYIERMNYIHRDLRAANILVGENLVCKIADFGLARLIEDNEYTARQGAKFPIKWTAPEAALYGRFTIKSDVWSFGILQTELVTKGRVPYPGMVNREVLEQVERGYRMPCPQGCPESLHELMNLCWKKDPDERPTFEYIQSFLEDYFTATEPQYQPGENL
UniProt Q9NRH1: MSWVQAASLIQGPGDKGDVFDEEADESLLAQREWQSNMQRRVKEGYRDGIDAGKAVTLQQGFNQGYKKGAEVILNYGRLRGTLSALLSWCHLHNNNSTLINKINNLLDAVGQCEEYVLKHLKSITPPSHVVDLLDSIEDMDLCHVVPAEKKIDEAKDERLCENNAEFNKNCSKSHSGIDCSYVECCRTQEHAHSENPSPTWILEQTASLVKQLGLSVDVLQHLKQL
UniProt Q7Z739: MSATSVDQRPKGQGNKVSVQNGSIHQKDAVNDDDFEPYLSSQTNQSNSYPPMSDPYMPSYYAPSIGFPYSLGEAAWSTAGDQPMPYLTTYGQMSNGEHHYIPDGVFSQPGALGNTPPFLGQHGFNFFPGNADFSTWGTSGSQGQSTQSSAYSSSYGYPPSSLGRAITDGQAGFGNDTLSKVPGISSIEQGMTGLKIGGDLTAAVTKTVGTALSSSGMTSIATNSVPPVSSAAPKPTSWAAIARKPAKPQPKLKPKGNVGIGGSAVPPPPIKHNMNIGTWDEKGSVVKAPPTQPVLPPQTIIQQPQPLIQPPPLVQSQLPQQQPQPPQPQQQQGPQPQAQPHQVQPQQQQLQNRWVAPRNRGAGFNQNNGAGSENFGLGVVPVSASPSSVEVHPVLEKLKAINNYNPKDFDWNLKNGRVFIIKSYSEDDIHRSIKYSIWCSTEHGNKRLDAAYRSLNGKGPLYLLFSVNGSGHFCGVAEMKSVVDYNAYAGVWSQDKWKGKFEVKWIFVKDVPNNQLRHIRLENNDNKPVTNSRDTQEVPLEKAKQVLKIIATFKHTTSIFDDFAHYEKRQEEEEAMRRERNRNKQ
UniProt Q9NYG2: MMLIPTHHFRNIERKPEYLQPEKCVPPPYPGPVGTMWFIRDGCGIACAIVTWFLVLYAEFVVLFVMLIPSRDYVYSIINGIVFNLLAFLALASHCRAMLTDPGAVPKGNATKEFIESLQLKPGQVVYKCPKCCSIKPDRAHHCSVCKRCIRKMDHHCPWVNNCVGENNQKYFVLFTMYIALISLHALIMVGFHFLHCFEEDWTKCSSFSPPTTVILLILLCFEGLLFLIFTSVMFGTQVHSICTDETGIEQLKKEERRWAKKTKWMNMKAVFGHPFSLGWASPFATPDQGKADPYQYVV
UniProt P49750: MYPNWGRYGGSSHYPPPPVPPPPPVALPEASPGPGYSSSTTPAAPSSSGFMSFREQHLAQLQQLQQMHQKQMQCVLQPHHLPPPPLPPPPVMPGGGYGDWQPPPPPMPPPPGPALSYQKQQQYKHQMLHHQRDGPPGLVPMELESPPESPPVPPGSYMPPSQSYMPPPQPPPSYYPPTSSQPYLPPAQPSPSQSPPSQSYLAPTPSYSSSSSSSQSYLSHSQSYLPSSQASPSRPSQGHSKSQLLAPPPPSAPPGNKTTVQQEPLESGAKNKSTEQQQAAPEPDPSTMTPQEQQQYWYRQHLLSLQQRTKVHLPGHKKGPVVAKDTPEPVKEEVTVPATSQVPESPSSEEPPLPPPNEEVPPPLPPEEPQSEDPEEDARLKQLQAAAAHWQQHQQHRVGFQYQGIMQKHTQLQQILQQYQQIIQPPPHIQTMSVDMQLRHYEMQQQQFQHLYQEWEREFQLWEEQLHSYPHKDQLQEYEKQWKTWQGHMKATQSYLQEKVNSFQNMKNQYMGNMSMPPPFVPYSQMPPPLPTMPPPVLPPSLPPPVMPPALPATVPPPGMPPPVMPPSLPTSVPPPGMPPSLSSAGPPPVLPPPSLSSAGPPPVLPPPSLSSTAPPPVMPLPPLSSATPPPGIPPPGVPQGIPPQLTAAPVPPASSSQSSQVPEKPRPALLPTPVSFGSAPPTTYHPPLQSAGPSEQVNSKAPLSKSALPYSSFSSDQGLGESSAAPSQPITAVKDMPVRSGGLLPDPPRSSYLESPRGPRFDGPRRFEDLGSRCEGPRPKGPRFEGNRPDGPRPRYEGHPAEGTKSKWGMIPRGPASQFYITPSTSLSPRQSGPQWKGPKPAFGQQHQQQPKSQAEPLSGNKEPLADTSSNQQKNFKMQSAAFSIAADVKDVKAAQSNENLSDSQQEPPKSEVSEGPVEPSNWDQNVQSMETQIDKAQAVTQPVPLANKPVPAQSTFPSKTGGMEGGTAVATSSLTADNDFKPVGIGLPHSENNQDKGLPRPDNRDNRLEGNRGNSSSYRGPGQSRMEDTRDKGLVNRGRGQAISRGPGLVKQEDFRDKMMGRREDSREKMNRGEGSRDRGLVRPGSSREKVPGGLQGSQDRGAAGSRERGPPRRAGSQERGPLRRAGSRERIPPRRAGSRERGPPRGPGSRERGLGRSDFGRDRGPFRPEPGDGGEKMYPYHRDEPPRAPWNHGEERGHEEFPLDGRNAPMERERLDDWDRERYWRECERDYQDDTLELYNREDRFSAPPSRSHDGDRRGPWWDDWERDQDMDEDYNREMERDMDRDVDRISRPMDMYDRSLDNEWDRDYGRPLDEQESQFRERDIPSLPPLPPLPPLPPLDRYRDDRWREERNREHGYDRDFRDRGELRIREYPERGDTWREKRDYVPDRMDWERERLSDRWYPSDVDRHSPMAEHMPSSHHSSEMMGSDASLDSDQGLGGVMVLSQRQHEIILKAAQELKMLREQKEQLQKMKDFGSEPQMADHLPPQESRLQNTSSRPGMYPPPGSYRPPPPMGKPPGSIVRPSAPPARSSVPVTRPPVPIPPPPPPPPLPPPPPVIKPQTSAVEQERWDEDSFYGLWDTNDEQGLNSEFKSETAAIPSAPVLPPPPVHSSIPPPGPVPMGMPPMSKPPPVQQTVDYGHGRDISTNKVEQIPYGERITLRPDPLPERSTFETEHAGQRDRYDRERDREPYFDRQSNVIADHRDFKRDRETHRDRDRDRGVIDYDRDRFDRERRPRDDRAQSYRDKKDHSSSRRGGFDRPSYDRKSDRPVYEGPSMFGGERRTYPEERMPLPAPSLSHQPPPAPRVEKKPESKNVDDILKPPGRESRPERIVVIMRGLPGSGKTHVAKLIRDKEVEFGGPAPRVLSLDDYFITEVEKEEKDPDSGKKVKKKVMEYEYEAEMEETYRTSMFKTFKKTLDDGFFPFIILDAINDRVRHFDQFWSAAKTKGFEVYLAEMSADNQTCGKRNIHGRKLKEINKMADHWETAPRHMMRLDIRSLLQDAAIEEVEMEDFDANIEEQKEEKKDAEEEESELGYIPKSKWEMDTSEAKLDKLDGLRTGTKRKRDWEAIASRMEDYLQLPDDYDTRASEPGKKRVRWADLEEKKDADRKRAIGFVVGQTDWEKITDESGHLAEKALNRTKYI
UniProt Q8N4Q0: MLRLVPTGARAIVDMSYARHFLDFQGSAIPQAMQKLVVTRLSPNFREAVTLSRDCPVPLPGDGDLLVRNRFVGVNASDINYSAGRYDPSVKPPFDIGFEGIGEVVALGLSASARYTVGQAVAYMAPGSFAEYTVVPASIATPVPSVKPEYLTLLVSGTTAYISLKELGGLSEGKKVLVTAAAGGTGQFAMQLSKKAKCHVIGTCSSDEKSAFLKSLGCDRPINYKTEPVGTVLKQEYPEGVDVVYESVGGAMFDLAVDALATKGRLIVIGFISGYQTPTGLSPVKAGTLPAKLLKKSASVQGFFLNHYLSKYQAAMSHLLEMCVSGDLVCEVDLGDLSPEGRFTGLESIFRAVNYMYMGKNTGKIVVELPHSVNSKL
UniProt Q5W0Z9: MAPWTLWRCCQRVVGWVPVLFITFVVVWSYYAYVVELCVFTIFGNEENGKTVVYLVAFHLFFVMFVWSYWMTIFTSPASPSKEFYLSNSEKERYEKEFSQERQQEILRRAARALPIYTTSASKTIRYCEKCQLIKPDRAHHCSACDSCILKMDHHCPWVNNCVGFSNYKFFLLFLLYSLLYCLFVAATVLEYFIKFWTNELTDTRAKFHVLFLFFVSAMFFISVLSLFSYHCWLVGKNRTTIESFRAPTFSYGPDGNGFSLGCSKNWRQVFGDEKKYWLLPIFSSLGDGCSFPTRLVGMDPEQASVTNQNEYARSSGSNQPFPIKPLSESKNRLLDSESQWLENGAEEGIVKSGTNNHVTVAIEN

Legend:
Assay in all cases: log2 fold change, soluble protein after heating vs DMSO (PISA); higher = thermal stabilisation; K562 cells, 10 uM, 30 min; active = over 0.2 and 3.5 SD of the protein, either way, in both replicates (recomputed)
IRAK-1-4 Inhibitor I = compound: C1COCCN1CCN2C3=CC=CC=C3N=C2NC(=O)C4=CC(=CC=C4)[N+](=O)[O-] [IRAK-1-4 Inhibitor I]
Outline: (§1)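 Quantification of soluble protein used TMTpro 16plex LC-MS/MS, with channel sums equalised. Samples were the supernatant after 21,000xg for 90 min of pooled aliquots from K562 cells (2×10^6 cells/mL) treated with 10 μM compound for 30 min, heated for 3 min over 48°C-58°C, and extracted in PBS with 0.5% NP-40 at 4°C. Values, from duplicates, describe thermal stability against control samples on a log2 fold-change scale.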

ibrutinib = compound: C=CC(=O)N1CCC[C@@H](n2nc(-c3ccc(Oc4ccccc4)cc3)c3c(N)ncnc32)C1 [ibrutinib]
Outline: as §1

[1] = compound: CC(=O)c1cnc2ccc(-c3cc(Cl)c(O)c(Cl)c3)nc2c1N[C@H]1CC[C@H](CN(C)C)CC1
Outline: as §1

ralimetinib = compound: CC(C)(C)Cn1c(N)nc2ccc(-c3[nH]c(C(C)(C)C)nc3-c3ccc(F)cc3)nc21 [ralimetinib]
Outline: as §1

[2] = compound: CC(C)(O)CC(=O)NCCn1ccc2ncnc(Nc3ccc(Oc4cccc(C(F)(F)F)c4)c(Cl)c3)c21
Outline: as §1

[3] = compound: CC(C)C1=C2N=C(C=C(N2N=C1)NCC3=CC=CC=C3)NCCCCCCN
Outline: as §1

[4] = compound: CC(C)C[C@@H](C=O)NC(=O)[C@H](CC(C)C)NC(=O)[C@H](CC(C)C)NC(=O)OCc1ccccc1
Outline: as §1

pinometostat = compound: CC(C)N(C[C@H]1O[C@@H](n2cnc3c(N)ncnc32)[C@H](O)[C@@H]1O)[C@H]1C[C@@H](CCc2nc3cc(C(C)(C)C)ccc3[nH]2)C1 [pinometostat]
Outline: as §1

[5] = compound: CC1=C(C(CC(=O)N1)C2=CC=C(C=C2)C(F)(F)F)C(=O)NC3=C(C=C4C(=C3)C=NN4)F
Outline: as §1

[6] = compound: CC1=C(C2=C(C=C1)C(=O)C3=CC=CC=C3N2CCCN)C
Outline: as §1

Measured: log2 fold change

ZMIZ2 (UniProt Q8NF64)
inactive: IRAK-1-4 Inhibitor I 0.046 | ibrutinib 0.025 | [1] -0.019 | ralimetinib -0.077 | [2] 0.021 | [3] 0.056 | [4] 0.245 | pinometostat -0.009 | [5] -0.042 | [6] -0.151

YDJC (UniProt A8MPS7)
inactive: IRAK-1-4 Inhibitor I 0.013 | ibrutinib 0.064 | [1] -0.002 | ralimetinib 0.056 | [2] -0.015 | [3] -0.073 | [4] -0.027 | pinometostat -0.031 | [5] -0.025 | [6] 0.009

YTHDF2 (UniProt Q9Y5A9)
inactive: IRAK-1-4 Inhibitor I -0.014 | ibrutinib 0.068 | [1] -0.039 | ralimetinib 0.007 | [2] 0.005 | [3] -0.023 | [4] 0.063 | pinometostat 0.03 | [5] 0.019 | [6] 0.052

ZBTB8OS (UniProt Q8IWT0)
inactive: IRAK-1-4 Inhibitor I -0.052 | ibrutinib -0.054 | [1] -0.099 | ralimetinib -0.114 | [2] -0.043 | [3] -0.039 | [4] -0.008 | pinometostat -0.004 | [5] -0.031 | [6] 0.003

XPO7 (UniProt E7ESC6)
inactive: IRAK-1-4 Inhibitor I 0.05 | ibrutinib -0.004 | [1] 0.023 | ralimetinib -0.042 | [2] -0.014 | [3] -0.017 | [4] -0.053 | pinometostat -0.021 | [5] 0.002 | [6] -0.066

ZDHHC14 (UniProt Q8IZN3)
inactive: IRAK-1-4 Inhibitor I 0.018 | ibrutinib -0.049 | [1] -0.025 | ralimetinib 0.038 | [2] 0.002 | [3] 0.015 | [4] 0.032 | pinometostat -0.028 | [5] 0 | [6] 0.057

YWHAE (UniProt P62258)
inactive: IRAK-1-4 Inhibitor I 0.032 | ibrutinib 0.017 | [1] 0.008 | ralimetinib -0.057 | [2] 0.012 | [3] 0.049 | [4] -0.019 | pinometostat -0.059 | [5] 0.009 | [6] -0.06

Quoted from the listing (six entries):
YDJC (UniProt A8MPS7)
inactive: IRAK-1-4 Inhibitor I 0.013 | ibrutinib 0.064 | [1] -0.002 | ralimetinib 0.056 | [2] -0.015 | [3] -0.073 | [4] -0.027 | pinometostat -0.031 | [5] -0.025 | [6] 0.009

YTHDF2 (UniProt Q9Y5A9)
inactive: IRAK-1-4 Inhibitor I -0.014 | ibrutinib 0.068 | [1] -0.039 | ralimetinib 0.007 | [2] 0.005 | [3] -0.023 | [4] 0.063 | pinometostat 0.03 | [5] 0.019 | [6] 0.052

ZBTB8OS (UniProt Q8IWT0)
inactive: IRAK-1-4 Inhibitor I -0.052 | ibrutinib -0.054 | [1] -0.099 | ralimetinib -0.114 | [2] -0.043 | [3] -0.039 | [4] -0.008 | pinometostat -0.004 | [5] -0.031 | [6] 0.003

XPO7 (UniProt E7ESC6)
inactive: IRAK-1-4 Inhibitor I 0.05 | ibrutinib -0.004 | [1] 0.023 | ralimetinib -0.042 | [2] -0.014 | [3] -0.017 | [4] -0.053 | pinometostat -0.021 | [5] 0.002 | [6] -0.066

ZDHHC14 (UniProt Q8IZN3)
inactive: IRAK-1-4 Inhibitor I 0.018 | ibrutinib -0.049 | [1] -0.025 | ralimetinib 0.038 | [2] 0.002 | [3] 0.015 | [4] 0.032 | pinometostat -0.028 | [5] 0 | [6] 0.057

YWHAE (UniProt P62258)
inactive: IRAK-1-4 Inhibitor I 0.032 | ibrutinib 0.017 | [1] 0.008 | ralimetinib -0.057 | [2] 0.012 | [3] 0.049 | [4] -0.019 | pinometostat -0.059 | [5] 0.009 | [6] -0.06

Following part:

ZFYVE27 isoform 2 (UniProt Q5T4F4)
inactive: IRAK-1-4 Inhibitor I 0.111 | ibrutinib -0.043 | [1] 0.004 | ralimetinib 0.078 | [2] -0.028 | [3] 0.025 | [4] 0.016 | pinometostat -0.012 | [5] 0.007 | [6] 0.077

YES1 (UniProt P07947)
inactive: IRAK-1-4 Inhibitor I -0.152 | ibrutinib 0.188 | ralimetinib -0.09 | [2] -0.054 | [3] 0 | [4] 0.068 | pinometostat 0.035 | [6] 0.043
active: [1] -0.819

ZFPL1 (UniProt O95159)
inactive: IRAK-1-4 Inhibitor I 0.021 | ibrutinib 0.087 | [1] 0.023 | ralimetinib 0.152 | [2] 0.04 | [3] 0.146 | [4] 0.038 | pinometostat -0.11 | [6] 0.079

YAE1 (UniProt Q9NRH1)
inactive: IRAK-1-4 Inhibitor I 0.103 | ibrutinib -0.008 | [1] 0.078 | ralimetinib 0.023 | [2] 0.072 | [3] 0.057 | [4] 0.007 | pinometostat 0.011 | [6] 0.022

XPO1 (UniProt O14980)
inactive: IRAK-1-4 Inhibitor I -0.013 | ibrutinib -0.045 | [1] 0.011 | ralimetinib 0.018 | [2] -0.196 | [4] -0.04 | pinometostat -0.013 | [6] -0.011
active: [3] -0.282

ZMYM1 (UniProt Q5SVZ6)
inactive: IRAK-1-4 Inhibitor I 0.006 | ibrutinib 0.066 | [1] 0.055 | ralimetinib 0.078 | [2] -0.01 | [3] 0.09 | [4] 0.006 | pinometostat 0.001 | [6] 0.024

ZDHHC17 (UniProt Q8IUH5)
inactive: IRAK-1-4 Inhibitor I -0.008 | ibrutinib -0.029 | [1] -0.007 | ralimetinib -0.099 | [2] 0.062 | [3] -0.061 | [4] -0.057 | pinometostat 0.053 | [6] 0.037

XRCC5 (UniProt P13010)
inactive: IRAK-1-4 Inhibitor I -0.264 | ibrutinib -0.104 | [1] -0.214 | ralimetinib 0.083 | [2] -0.175 | [4] 0.126 | pinometostat -0.01 | [6] -0.065
active: [3] -0.505

XRCC6 (UniProt P12956)
inactive: IRAK-1-4 Inhibitor I -0.046 | ibrutinib -0.057 | [1] -0.12 | ralimetinib -0.004 | [2] -0.124 | [3] -0.195 | [4] 0.074 | pinometostat -0.01 | [6] -0.008

YTHDF3 (UniProt Q7Z739)
inactive: IRAK-1-4 Inhibitor I -0.033 | ibrutinib 0.029 | [1] 0.003 | ralimetinib -0.002 | [2] 0.007 | [3] -0.003 | [4] 0.011 | pinometostat -0.001 | [5] 0.014 | [6] 0.016

ZC3HC1 (UniProt Q86WB0)
inactive: IRAK-1-4 Inhibitor I -0.017 | ibrutinib -0.041 | [1] -0.165 | ralimetinib 0.035 | [2] -0.179 | [3] -0.151 | [4] -0.101 | pinometostat -0.005 | [6] -0.091

XPR1 (UniProt Q9UBH6)
inactive: IRAK-1-4 Inhibitor I 0.079 | ibrutinib 0.041 | [1] -0.066 | ralimetinib -0.017 | [2] 0.023 | [3] 0.1 | [4] -0.006 | pinometostat -0.019 | [5] -0.007 | [6] 0.079

XPNPEP3 (UniProt Q9NQH7)
inactive: IRAK-1-4 Inhibitor I 0.061 | ibrutinib 0.044 | [1] 0.019 | ralimetinib -0.013 | [2] 0.021 | [3] -0.002 | [4] -0.018 | pinometostat -0.015 | [6] -0.028

ZDHHC3 isoform 2 (UniProt Q9NYG2)
inactive: IRAK-1-4 Inhibitor I 0.061 | ibrutinib -0.008 | [1] -0.051 | ralimetinib -0.125 | [2] -0.151 | [3] -0.167 | [4] 0.059 | pinometostat 0 | [5] 0.019 | [6] -0.013

ZCCHC8 (UniProt Q6NZY4)
inactive: IRAK-1-4 Inhibitor I 0.052 | ibrutinib 0 | [1] 0.045 | ralimetinib -0.027 | [2] -0.038 | [3] -0.048 | [4] 0.031 | pinometostat 0.042 | [5] -0.017 | [6] 0.062

ZNF143 (UniProt P52747)
inactive: IRAK-1-4 Inhibitor I 0.108 | ibrutinib 0.01 | [1] -0.044 | ralimetinib 0.112 | [2] 0.028 | [3] -0.158 | [4] -0.119 | pinometostat 0.014 | [6] -0.043

ZMYM3 (UniProt Q14202)
inactive: IRAK-1-4 Inhibitor I 0.057 | ibrutinib 0.03 | [1] -0.004 | ralimetinib -0.07 | [2] 0.084 | [3] 0.04 | [4] 0.09 | pinometostat -0.011 | [6] -0.058

YAF2 isoform 5 (UniProt Q8IY57)
inactive: IRAK-1-4 Inhibitor I 0.164 | ibrutinib 0.023 | [1] 0.002 | ralimetinib -0.039 | [2] -0.044 | [3] -0.084 | [4] -0.054 | pinometostat 0.018 | [5] 0.071 | [6] -0.229

YIPF6 (UniProt Q96EC8)
inactive: IRAK-1-4 Inhibitor I 0.029 | ibrutinib -0.001 | [1] 0.008 | ralimetinib -0.045 | [2] 0.019 | [3] -0.044 | [4] 0.02 | pinometostat 0.023 | [6] 0.145

YLPM1 (UniProt P49750)
inactive: IRAK-1-4 Inhibitor I -0.06 | ibrutinib -0.117 | [1] -0.093 | ralimetinib 0.043 | [2] -0.002 | [3] -0.086 | [4] 0.028 | pinometostat 0.003 | [6] 0.023

ZADH2 (UniProt Q8N4Q0)
active: [2] -0.323
inactive: IRAK-1-4 Inhibitor I 0.036 | ibrutinib 0.125 | [1] -0.131 | ralimetinib 0.169 | [3] -0.019 | [4] -0.045 | pinometostat 0 | [6] 0.038

ZNF207 isoform 4 (UniProt O43670)
inactive: IRAK-1-4 Inhibitor I 0 | ibrutinib 0.082 | [1] 0.003 | ralimetinib -0.04 | [2] -0.04 | [3] 0.081 | [4] -0.02 | pinometostat -0.034 | [5] 0.007 | [6] 0.015

ZDHHC20 (UniProt Q5W0Z9)
inactive: IRAK-1-4 Inhibitor I -0.044 | ibrutinib -0.004 | [1] 0.026 | ralimetinib -0.187 | [2] -0.082 | [3] -0.229 | [4] -0.153 | pinometostat 0.025 | [6] 0.028

ZC2HC1A (UniProt Q96GY0)
inactive: IRAK-1-4 Inhibitor I 0 | ibrutinib -0.003 | [1] 0.087 | ralimetinib -0.021 | [2] -0.018 | [3] 0.115 | [4] 0.2 | pinometostat 0.216 | [5] -0.053 | [6] 0.206
